No constants are given. Whether binding was seen depends on the method and setting. Some results given as binding are weak or reduced against the parent protein; the word gives no strength. Tags and fused reporters may be left off the sequences shown.
Tests used:
[1] = target: T1, GST/strep-fused Arabidopsis PIF1 (Arabidopsis) (UniProt Q8GZM7); assay: pull-down; GST/strep-fused interacting protein (1.0 μg) held on glutathione resin, phytochrome (1.0 μg) in solution, Pr and Pfr forms both tested; 60 min at 4 °C in pull-down buffer (100 mM Tris-HCl pH 7.8, 1 mM EDTA, 150 mM NaCl, 100 μg/ml BSA); western blot with oat22 and anti-GST; both purified
T1 sequence: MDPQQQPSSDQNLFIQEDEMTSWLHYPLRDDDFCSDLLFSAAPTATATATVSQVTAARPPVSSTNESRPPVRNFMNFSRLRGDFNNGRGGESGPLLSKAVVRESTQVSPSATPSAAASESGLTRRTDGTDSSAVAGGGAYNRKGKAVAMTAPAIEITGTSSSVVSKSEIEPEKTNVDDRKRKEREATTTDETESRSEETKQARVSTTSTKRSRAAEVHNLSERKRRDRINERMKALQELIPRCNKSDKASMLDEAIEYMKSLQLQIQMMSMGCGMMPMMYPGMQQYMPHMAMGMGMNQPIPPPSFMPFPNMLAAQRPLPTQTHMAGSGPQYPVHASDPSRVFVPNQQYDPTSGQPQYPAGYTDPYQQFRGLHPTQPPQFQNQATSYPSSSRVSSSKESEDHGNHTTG

GST/strep-fused PIF7 = target: T2, GST/strep-fused PIF7 (UniProt Q570R7); assay: as above
T2 sequence: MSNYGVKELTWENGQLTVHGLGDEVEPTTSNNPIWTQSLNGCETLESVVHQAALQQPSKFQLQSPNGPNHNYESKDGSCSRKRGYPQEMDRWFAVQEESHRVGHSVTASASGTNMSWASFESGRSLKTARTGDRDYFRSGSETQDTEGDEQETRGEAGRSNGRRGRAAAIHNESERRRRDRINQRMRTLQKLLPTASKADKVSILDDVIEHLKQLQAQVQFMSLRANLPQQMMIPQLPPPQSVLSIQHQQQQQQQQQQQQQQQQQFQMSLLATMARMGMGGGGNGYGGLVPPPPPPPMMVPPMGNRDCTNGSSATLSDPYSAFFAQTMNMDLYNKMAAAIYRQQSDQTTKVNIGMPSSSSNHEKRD

- binding [1]: binds
- binding (GST/strep-fused PIF7): binds weakly
B1: Avena sativa phytochrome A, full-length wild type (natural protein, UniProt P06593 1-1129, looked up)
chain: MSSSRPASSSSSRNRQSSQARVLAQTTLDAELNAEYEESGDSFDYSKLVEAQRDGPPVQQGRSEKVIAYLQHIQKGKLIQTFGCLLALDEKSFNVIAFSENAPEMLTTVSHAVPSVDDPPRLGIGTNVRSLFSDQGATALHKALGFADVSLLNPILVQCKTSGKPFYAIVHRATGCLVVDFEPVKPTEFPATAAGALQSYKLAAKAISKIQSLPGGSMEVLCNTVVKEVFDLTGYDRVMAYKFHEDDHGEVFSEITKPGLEPYLGLHYPATDIPQAARLLFMKNKVRMICDCRARSIKVIEAEALPFDISLCGSALRAPHSCHLQYMENMNSIASLVMAVVVNENEEDDEAESEQPAQQQKKKKLWGLLVCHHESPRYVPFPLRYACEFLAQVFAVHVNREFELEKQLREKNILKMQTMLSDMLFREASPLTIVSGTPNIMDLVKCDGAALLYGGKVWRLRNAPTESQIHDIAFWLSDVHRDSTGLSTDSLHDAGYPGAAALGDMICGMAVAKINSKDILFWFRSHTAAEIRWGGAKNDPSDMDDSRRMHPRLSFKAFLEVVKMKSLPWSDYEMDAIHSLQLILRGTLNDASKPKREASLDNQIGDLKLDGLAELQAVTSEMVRLMETATVPILAVDGNGLVNGWNQKAAELTGLRVDDAIGRHILTLVEDSSVPVVQRMLYLALQGKEEKEVRFEVKTHGPKRDDGPVILVVNACASRDLHDHVVGVCFVAQDMTVHKLVMDKFTRVEGDYKAIIHNPNPLIPPIFGADEFGWCSEWNAAMTKLTGWNRDEVLDKMLLGEVFDSSNASCPLKNRDAFVSLCVLINSALAGEETEKAPFGFFDRSGKYIECLLSANRKENEGGLITGVFCFIHVASHELQHALQVQQASEQTSLKRLKAFSYMRHAINNPLSGMLYSRKALKNTDLNEEQMKQIHVGDNCHHQINKILADLDQDSITEKSSCLDLEMAEFLLQDVVVAAVSQVLITCQGKGIRISCNLPERFMKQSVYGDGVRLQQILSDFLFISVKFSPVGGSVEISSKLTKNSIGENLHLIDLELRIKHQGLGVPAELMAQMFEEDNKEQSEEGLSLLVSRNLLRLMNGDVRHLREAGVSTFIITAELASAPTAMGQ
modifications: phycocyanobilin chromophore assembled (chromophore-binding site C322)
notes: Avena sativa (oat) phytochrome A, full-length gene AsPHYA; 1129 residues by the printed construct limits (66-1129aa); Used as Pr (far-red irradiated) and Pfr (red irradiated) forms; also called AsphyA; FL-AsphyA; source: phycocyanobilin added in vitro

Reference: paper PMC4869175, “Evidence that phytochrome functions as a protein kinase in plant light signalling” (Nature Communications, 2016)
